Measured values taken from the supplement of paper PMC7666118.
Some of the results follow.

Amino acid sequences for entries named in this document (tags omitted). A change or cut given only in a name is not applied to a line headed by its entry.
UniProt Q9NY33: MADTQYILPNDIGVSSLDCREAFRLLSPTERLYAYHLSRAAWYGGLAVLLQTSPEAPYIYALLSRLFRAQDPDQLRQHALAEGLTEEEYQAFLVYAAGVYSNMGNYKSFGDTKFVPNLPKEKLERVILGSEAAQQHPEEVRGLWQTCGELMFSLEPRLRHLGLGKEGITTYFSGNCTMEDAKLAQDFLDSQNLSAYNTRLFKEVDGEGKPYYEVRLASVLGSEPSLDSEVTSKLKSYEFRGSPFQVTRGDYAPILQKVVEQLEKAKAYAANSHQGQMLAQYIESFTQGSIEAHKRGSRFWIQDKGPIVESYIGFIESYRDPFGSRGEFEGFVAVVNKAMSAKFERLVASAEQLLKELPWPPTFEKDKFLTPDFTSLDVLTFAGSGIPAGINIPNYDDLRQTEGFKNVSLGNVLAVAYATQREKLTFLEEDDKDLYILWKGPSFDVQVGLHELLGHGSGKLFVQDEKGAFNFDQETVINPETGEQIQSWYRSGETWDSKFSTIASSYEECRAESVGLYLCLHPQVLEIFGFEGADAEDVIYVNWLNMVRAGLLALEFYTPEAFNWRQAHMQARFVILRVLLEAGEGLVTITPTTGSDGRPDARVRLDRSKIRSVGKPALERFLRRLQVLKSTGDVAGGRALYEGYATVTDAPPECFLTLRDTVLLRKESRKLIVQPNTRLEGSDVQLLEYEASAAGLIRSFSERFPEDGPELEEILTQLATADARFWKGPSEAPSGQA
UniProt P30046: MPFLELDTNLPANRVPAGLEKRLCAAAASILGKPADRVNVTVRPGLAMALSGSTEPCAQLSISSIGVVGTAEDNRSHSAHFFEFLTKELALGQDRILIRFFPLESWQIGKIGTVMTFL
UniProt Q9UKB3: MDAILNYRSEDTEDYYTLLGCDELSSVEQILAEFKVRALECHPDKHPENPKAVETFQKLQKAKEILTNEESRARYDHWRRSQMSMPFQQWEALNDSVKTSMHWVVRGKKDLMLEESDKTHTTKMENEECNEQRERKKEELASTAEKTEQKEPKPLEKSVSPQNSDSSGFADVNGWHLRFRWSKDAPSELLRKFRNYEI
UniProt Q9NUQ3: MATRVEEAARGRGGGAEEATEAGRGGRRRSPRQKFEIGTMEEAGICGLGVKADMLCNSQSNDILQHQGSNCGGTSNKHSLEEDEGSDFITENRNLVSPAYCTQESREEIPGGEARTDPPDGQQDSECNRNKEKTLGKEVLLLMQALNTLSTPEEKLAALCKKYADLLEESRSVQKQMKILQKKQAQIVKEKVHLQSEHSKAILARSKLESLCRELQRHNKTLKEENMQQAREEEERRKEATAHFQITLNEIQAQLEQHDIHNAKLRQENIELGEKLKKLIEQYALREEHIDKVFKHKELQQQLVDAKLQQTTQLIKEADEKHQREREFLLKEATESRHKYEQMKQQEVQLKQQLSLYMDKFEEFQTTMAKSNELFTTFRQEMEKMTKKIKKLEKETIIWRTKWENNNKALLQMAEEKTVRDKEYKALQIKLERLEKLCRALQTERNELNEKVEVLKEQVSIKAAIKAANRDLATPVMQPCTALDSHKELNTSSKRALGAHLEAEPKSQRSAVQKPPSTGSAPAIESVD
UniProt Q9H5Z1: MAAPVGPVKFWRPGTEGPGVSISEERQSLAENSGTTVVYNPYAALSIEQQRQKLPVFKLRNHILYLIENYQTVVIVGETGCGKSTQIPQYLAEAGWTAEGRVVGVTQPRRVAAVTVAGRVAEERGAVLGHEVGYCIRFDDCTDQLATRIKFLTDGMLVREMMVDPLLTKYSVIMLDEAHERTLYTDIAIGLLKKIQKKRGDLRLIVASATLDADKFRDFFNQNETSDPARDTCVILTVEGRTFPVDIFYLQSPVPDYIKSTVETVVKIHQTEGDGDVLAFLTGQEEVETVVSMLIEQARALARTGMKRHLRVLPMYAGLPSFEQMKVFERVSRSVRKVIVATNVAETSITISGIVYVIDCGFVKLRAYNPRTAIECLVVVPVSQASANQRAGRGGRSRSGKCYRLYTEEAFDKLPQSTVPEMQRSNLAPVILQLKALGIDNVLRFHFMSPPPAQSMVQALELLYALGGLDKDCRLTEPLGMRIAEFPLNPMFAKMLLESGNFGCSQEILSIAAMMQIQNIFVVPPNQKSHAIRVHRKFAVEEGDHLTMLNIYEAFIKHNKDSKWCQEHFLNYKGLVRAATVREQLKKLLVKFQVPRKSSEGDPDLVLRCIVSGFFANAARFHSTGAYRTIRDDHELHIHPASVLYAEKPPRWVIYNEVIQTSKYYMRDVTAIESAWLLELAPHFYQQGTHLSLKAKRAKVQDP
UniProt P07108: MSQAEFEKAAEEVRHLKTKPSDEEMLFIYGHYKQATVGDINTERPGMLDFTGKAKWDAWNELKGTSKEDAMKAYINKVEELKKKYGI
UniProt Q9UJW0, whole entry: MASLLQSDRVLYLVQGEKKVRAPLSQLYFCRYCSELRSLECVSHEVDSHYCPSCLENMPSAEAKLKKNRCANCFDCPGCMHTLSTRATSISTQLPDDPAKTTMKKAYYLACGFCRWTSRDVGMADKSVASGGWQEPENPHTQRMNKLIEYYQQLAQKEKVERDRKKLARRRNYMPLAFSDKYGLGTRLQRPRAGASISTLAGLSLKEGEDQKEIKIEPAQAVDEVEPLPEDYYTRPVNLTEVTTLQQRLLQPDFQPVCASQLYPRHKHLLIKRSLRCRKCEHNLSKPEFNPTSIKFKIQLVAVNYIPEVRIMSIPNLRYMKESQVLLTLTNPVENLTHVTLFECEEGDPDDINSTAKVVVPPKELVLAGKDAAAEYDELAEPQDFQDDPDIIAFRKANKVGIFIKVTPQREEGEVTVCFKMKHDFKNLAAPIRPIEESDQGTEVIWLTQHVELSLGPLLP
UniProt Q9UNQ2: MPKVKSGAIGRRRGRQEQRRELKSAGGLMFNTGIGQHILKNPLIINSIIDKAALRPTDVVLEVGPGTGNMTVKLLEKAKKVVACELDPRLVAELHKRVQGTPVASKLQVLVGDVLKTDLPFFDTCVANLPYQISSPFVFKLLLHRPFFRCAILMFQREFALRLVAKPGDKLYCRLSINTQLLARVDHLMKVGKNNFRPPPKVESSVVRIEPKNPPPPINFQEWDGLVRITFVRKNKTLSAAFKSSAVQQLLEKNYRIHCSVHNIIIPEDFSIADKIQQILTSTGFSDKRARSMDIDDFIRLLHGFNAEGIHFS
UniProt Q9Y2L1: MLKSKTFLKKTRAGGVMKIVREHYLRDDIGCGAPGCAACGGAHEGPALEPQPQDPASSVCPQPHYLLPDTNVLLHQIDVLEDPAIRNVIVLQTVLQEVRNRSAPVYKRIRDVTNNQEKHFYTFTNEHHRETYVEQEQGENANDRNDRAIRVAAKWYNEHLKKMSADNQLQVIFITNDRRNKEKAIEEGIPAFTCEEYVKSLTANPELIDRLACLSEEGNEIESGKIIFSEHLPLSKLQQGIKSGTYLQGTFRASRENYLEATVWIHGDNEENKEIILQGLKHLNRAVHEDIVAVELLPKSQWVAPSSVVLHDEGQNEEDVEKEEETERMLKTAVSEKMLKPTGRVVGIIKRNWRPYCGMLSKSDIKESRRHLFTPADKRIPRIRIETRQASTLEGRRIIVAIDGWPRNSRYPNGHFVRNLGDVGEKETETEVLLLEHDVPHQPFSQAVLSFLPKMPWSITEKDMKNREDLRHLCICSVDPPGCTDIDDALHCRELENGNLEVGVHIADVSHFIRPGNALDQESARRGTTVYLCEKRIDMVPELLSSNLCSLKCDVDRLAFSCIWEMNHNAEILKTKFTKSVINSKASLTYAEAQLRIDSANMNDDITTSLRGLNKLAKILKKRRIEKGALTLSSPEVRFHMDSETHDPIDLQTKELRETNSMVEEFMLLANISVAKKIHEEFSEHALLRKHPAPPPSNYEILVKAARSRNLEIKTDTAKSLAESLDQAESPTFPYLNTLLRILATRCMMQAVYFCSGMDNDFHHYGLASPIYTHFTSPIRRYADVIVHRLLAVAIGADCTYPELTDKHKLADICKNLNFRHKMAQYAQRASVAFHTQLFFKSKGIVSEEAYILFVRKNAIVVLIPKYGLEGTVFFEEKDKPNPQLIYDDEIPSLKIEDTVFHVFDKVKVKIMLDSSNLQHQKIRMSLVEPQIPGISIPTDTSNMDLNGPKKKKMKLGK
UniProt Q8IY37: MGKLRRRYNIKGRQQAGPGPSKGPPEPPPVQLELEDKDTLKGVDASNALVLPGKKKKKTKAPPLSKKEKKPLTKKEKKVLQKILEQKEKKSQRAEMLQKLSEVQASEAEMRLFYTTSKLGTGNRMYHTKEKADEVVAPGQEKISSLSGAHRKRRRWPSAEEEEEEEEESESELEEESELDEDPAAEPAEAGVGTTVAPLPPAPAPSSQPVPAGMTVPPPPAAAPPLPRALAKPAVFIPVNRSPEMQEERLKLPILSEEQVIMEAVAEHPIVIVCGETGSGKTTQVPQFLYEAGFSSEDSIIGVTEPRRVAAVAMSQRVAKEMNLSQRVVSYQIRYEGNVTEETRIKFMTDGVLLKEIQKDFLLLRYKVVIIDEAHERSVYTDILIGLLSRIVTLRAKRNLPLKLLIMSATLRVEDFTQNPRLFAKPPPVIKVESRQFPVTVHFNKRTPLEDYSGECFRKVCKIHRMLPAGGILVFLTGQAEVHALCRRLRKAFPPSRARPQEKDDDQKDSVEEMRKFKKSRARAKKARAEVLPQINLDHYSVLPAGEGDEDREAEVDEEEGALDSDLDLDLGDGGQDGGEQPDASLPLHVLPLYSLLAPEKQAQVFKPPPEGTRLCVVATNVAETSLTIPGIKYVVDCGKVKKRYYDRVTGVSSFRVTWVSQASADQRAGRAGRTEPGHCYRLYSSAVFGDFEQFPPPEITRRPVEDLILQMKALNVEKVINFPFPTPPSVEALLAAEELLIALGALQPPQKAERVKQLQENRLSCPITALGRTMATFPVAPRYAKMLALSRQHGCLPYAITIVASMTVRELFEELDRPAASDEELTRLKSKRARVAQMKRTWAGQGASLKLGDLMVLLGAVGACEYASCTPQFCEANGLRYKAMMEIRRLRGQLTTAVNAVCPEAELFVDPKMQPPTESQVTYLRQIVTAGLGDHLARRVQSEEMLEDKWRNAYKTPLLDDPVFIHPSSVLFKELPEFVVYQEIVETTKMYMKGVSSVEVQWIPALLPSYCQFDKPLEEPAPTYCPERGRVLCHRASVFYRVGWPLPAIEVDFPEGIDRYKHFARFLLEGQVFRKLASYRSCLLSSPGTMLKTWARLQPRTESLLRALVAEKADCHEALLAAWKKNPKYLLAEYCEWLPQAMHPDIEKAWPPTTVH
UniProt Q9NVM6: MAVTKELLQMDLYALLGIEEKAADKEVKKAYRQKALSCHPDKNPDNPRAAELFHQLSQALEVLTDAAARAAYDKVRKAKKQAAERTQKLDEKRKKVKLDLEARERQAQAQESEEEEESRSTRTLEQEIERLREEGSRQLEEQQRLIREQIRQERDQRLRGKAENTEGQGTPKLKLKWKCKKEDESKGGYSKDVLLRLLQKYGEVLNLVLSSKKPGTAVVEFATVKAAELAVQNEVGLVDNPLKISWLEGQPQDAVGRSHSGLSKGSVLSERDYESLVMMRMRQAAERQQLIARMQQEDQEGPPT
UniProt Q53TN4: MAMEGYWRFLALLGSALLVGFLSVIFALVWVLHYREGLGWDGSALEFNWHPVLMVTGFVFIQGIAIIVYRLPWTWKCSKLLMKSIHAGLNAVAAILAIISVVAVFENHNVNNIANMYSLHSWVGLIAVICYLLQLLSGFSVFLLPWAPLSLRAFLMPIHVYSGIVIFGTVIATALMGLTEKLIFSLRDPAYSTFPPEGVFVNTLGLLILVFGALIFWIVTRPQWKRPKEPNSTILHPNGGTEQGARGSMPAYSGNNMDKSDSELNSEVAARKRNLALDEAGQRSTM
UniProt Q13617, whole entry: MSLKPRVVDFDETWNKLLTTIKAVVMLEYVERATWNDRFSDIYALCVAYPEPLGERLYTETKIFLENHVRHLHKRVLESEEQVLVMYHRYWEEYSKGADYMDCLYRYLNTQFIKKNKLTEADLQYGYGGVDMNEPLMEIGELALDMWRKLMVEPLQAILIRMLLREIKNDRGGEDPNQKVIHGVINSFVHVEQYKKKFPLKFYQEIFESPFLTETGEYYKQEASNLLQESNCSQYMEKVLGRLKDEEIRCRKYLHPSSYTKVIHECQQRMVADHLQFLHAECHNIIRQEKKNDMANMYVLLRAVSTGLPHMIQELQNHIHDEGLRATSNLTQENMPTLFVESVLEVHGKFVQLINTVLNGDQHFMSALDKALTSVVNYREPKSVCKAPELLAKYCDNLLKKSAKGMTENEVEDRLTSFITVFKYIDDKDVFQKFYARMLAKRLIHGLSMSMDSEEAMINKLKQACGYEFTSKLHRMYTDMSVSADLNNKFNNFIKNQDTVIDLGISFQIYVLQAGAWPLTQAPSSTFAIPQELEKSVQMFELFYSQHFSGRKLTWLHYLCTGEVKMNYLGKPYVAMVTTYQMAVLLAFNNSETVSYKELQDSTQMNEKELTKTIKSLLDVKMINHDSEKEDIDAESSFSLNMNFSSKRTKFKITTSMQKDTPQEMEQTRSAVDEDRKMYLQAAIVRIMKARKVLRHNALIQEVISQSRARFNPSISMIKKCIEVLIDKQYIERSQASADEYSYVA

Compound: COc1ccc(Cn2ccc3cc(C)c(C(=O)NO)cc32)cc1
Assay: dose-dependent thermal stabilisation call (2D-TPP, DLPTP, 10% FDR) (binary (1 = stabilised)); higher = stabilised by the compound
Details: system: HL-60 intact cells; concentration range 0.04-10 µM
Method: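 2D thermal proteome profiling in intact HL-60 cells treated with BRD-3811 (0, 0.04, 0.29, 2, 10 uM) for 90 min at 37 C, then heated 3 min at one of 12 temperatures (42-63.9 C). Soluble protein was quantified by TMT10 MS. The value is the DLPTP call of the paper: dose-dependent thermal stabilisation over all temperatures at 10% FDR (F-test of a dose-response against a flat model); one experiment, one call per tested protein.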

Target	dose-dependent thermal stabilisation call
DDX47 (UniProt Q9H0S4)	inactive: 0
CSGLCA-T	inactive: 0
DDHD2 (UniProt O94830)	inactive: 0
DDX52 (UniProt Q9Y2R4)	inactive: 0
DPP3 (UniProt Q9NY33)	inactive: 0
DNAJA2 (UniProt O60884)	inactive: 0
DDX59 (UniProt Q5T1V6)	inactive: 0
DNAJC14 (UniProt Q6Y2X3)	inactive: 0
DDT (UniProt P30046)	inactive: 0
DNAJC12 (UniProt Q9UKB3)	inactive: 0
CXORF15 (UniProt Q9NUQ3)	inactive: 0
DPH2 (UniProt Q9BQC3)	active: 1
DNAJC5 (UniProt Q9H3Z4)	inactive: 0
DAGLB (UniProt Q8NCG7)	inactive: 0
DNAJC10 (UniProt Q8IXB1)	inactive: 0
DHX38 (UniProt Q92620)	inactive: 0
CTBP2 (UniProt P56545)	inactive: 0
CYB5A (UniProt P00167)	inactive: 0
DHX35 (UniProt Q9H5Z1)	inactive: 0
CTSC (UniProt P53634)	inactive: 0

Target	dose-dependent thermal stabilisation call
DBI (UniProt P07108)	inactive: 0
DCTN4 (UniProt Q9UJW0)	inactive: 0
CTSG (UniProt P08311)	inactive: 0
DDX17 (UniProt Q92841)	inactive: 0
DIMT1L (UniProt Q9UNQ2)	inactive: 0
DIS3 (UniProt Q9Y2L1)	inactive: 0
DPP7 (UniProt Q9UHL4)	inactive: 0
CYP20A1 (UniProt Q6UW02)	inactive: 0
DHX37 (UniProt Q8IY37)	inactive: 0
CUEDC2 (UniProt Q9H467)	inactive: 0
DNAJC17 (UniProt Q9NVM6)	inactive: 0
CYBRD1 (UniProt Q53TN4)	inactive: 0
DOCK2 (UniProt Q92608)	inactive: 0
DEK (UniProt P35659)	inactive: 0
DCTN3 (UniProt O75935)	inactive: 0
CSNK2B (UniProt P67870)	inactive: 0
DBN1 (UniProt Q16643)	inactive: 0
CSNK2A1 (UniProt P68400)	inactive: 0
DNAJC9 (UniProt Q8WXX5)	inactive: 0
CUL2 (UniProt Q13617)	inactive: 0

Laid out differently: results already given.

| Target | dose-dependent thermal stabilisation call |
| --- | --- |
| CUEDC2 (UniProt Q9H467) | inactive: 0 |
| DNAJC17 (UniProt Q9NVM6) | inactive: 0 |
